Among the data in publication PMC4222359 are binding values, retold here.

Chains of the proteins cited; added tags and fusions are not shown.
UniProt P54098: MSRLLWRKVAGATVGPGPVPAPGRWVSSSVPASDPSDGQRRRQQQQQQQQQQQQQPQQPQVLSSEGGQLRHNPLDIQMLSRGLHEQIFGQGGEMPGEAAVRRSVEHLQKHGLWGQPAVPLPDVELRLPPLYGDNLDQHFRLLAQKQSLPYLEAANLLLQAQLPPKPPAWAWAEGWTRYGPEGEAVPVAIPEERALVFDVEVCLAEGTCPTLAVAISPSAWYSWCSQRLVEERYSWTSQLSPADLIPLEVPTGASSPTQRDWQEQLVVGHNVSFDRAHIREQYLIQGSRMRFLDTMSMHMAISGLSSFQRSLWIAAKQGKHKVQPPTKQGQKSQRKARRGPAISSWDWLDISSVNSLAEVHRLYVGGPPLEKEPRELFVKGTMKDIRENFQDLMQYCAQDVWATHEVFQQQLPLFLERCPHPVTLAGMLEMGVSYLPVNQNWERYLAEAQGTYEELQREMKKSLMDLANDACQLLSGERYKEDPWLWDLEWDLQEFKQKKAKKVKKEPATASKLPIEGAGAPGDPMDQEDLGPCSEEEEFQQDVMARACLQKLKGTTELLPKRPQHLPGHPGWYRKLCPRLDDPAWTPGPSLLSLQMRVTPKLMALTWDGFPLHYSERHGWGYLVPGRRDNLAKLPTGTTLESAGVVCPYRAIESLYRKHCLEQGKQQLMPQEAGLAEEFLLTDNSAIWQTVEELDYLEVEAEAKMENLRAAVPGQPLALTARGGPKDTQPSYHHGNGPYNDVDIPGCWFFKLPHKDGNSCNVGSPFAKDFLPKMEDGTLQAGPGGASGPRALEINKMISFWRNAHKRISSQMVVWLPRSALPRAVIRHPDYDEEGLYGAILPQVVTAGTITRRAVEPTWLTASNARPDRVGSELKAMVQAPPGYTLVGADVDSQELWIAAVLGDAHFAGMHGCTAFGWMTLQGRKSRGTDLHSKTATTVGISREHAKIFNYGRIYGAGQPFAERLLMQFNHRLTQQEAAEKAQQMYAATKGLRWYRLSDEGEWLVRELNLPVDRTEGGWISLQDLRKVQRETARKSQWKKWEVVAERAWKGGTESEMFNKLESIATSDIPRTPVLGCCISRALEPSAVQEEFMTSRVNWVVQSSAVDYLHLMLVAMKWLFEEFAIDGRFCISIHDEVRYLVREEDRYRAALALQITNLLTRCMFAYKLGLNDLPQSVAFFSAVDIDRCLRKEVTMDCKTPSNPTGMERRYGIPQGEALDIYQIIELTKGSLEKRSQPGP

One assay has as its target T1, MGME1.Flag (human) (UniProt Q9BQP7).
T1 sequence: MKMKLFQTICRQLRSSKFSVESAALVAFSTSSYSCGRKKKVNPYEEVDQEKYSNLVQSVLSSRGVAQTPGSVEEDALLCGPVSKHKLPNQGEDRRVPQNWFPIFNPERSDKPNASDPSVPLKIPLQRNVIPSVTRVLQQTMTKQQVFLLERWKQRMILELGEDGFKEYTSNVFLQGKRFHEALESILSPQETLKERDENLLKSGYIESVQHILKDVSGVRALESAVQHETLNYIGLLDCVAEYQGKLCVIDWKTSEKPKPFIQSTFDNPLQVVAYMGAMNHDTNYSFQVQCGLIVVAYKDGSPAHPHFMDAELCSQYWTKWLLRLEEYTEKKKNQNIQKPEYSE
As to the kind of experiment: affinity purification with mass spectrometry; MGME1.Flag as bait from extracts of isolated HEK293T mitochondria, anti-Flag beads; five bait purifications and one control purification (untransfected parental cells); label-free LC-MS of eluates.

The target of assay [1] is T2, MGME1.Flag (human), Q9BQP7.
T2 chain: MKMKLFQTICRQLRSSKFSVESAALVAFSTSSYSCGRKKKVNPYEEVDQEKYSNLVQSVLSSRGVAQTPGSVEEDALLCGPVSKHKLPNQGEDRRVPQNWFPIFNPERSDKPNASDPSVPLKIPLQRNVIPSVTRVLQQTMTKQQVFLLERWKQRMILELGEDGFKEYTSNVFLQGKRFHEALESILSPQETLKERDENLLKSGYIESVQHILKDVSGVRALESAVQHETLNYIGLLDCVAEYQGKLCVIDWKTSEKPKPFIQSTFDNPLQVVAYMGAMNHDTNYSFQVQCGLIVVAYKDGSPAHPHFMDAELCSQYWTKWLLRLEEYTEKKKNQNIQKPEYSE
The assay is described as above. Conditions: remark: other sources report otherwise.

No constants are given. Whether binding was seen depends on the method and setting. In cells and extracts the contact can be indirect. A yes stands for co-enrichment or nearness to the bait. Other partners may have been found. A no says only that the protein was not detected with the bait. Sequences can lack the tags named with a protein.

Turning to “PolgA (from UniProt P54098 1-1239) (enzyme)”, in the assay with MGME1.Flag (human), the binding entry is on record as “binds”.

B1: TFAM, Q00059 43-246 (protein)
chain: SSVLASCPKKPVSSYLRFSKEQLPIFKAQNPDAKTTELIRRIAQRWRELPDSKKKIYQDAYRAEWQVYKEEISRFKEQLTPSQIMSLEKEIMDKHLKRKAMTKKKELTLLGKPKRPRSAYNVYVAERFQEAKGDSPQEKLKTVKENWKNLSDSEKELYIQHAKEDETRYHNEMKSWEEQMIEVGRKDLLRRTIKKQRKYGAEEC
Take B1: in assay [1], the binding entry is given as “no binding”.

B2: mtSSB (protein, UniProt Q04837 17-148)
chain: ESETTTSLVLERSLNRVHLLGRVGQDPVLRQVEGKNPVTIFSLATNEMWRSGDSEVYQLGDVSQKTTWHRISVFRPGLRDVAYQYVKKGSRIYLEGKIDYGEYMDKNNVRRQATTIIADNIIFLSDQTKEKE
For B2, the binding entry with MGME1.Flag (human) is on record as “no binding”.
